Experimental data reported in patent US10857154B2, “Pharmaceutical composition containing keratin 8 phosphorylation inhibitor for preventing or treating macular degeneration, and method for screening macular degeneration medicine” (priority 2016, dated 2020).
For at least one compound, name, drawing or mass did not settle the structure.

Experiments:
[1] = test system: APRE-19 cells and human-tissue-derived RPE cells; test: E-cadherin / vimentin immunostaining: epithelial-mesenchymal transition under paraquat oxidative stress; format: cell-based; details: 400 μM paraquat and 50 nM trametinib for 48 hr, FIG. 4C
Experimental: E-cadherin (green fluorescence) and vimentin (red fluorescence) in the cells were immunostained (cell signaling; 7832s). The nucleus was stained using TOPRO-3 (blue fluorescence) (FIG. 3A).
Thereafter, E-cadherin (green fluorescence) and vimentin (red fluorescence) in the cells were immunostained. The nucleus was visualized using TOPRO-3 (blue fluorescence) (FIG. 4C).
(§1) The same procedures as in Example 3 were performed, and 10 μM gefitinib was used in lieu of 50 nM trametinib.

[2] = test system: APRE-19 cells and human-tissue-derived RPE cells; test: P-K8 immunostaining: reorganization of K8 around the nucleus under paraquat oxidative stress; format: cell-based; details: 400 μM paraquat and 50 nM trametinib for 36 hr, FIG. 4B
Excerpt: The ARPE-19 cells are cell lines that have been genetically engineered for infinite proliferation for experimental use. However, as the human-tissue-derived RPE cells were obtained by culturing RPE tissue isolated from the human eye without any genetic engineering they were used for experiments under conditions similar to those of human RPE.
Thereafter, P-K8 (green fluorescence) of the cells was immunostained (Abcam; ab32579). The nucleus was stained (Invitrogen; T3605) using TOPRO-3 (blue fluorescence) (FIG. 2C).
P-K8 (green fluorescence) of the cells was immunostained (FIG. 4B).
as §1

[3] = test system: keratin 8 (K8) phosphorylation; test: Western blotting of P-ERK1/2 and P-K8 in paraquat-treated retinal pigment epithelial cells; format: cell-based, human; details: APRE-19 cells, 400 μM paraquat and 50 nM trametinib for 24 hr; FIG. 4A
Experimental: In the bar graph analyzed from the image of western blotting, the expression levels of P-ERK and P-K8 were calculated (FIG. 2B).
In the bar graph analyzed from the image of western blotting, the expression levels of P-ERK and P-K8 were calculated (FIG. 4A).
as §1

[4] = APRE-19 and human-tissue-derived RPE cells

## CC(=O)Nc1cccc(-n2c(=O)n(C3CC3)c(=O)c3c(Nc4ccc(I)cc4F)n(C)c(=O)c(C)c32)c1 [trametinib]
[1]
  epithelial-mesenchymal transition: reduce epithelial-mesenchymal transition
[1]; [4]
  E-cadherin expression: recovered E-cadherin lost
  vimentin filaments: inhibited an increase in vimentin filaments
[2]
  reorganization of K8 around the nucleus: inhibited reorganization of K8 around the nucleus
[3]
  K8 phosphorylation due to oxidative stress (P-ERK and P-K8 expression levels): inhibited K8 phosphorylation
